# The list shows a part of the results. Shown are side measurements of this screen, not its main read-out; they come without a call. The list favours compounds with an active or inconclusive main result. Potencies come from curve fits of mixed quality, noted in brackets.
# Assay: qHTS Assay for Identifying the Cell-Membrane Permeable IMPase Inhibitors
# Conditions: CHO-M1 cells, IP1 accumulation, HTRF TR-FRET ratio; measured here: donor channel 620 nm AC50
row,Structure (SMILES),AC50
1,CSc1[nH]c(=O)c(C(=O)O)cc1C#N,"0.0126 µM [falling, full curve, poor fit]"
2,Cc1ccc(N2C(=O)c3ccccc3C2=O)cc1C,"0.02 µM [rising, full curve, poor fit]"
3,O=C(CSCc1ccc(Cl)cc1)Nc1ccccc1C(=O)N1CCOCC1,"3.16 µM [rising, full curve, poor fit]"
4,CCOC(=O)c1c(NC(=O)COc2ccc(C)cc2C(C)(C)C)sc2c1CCC(C)C2 (stereo not drawn),"1.26 µM [falling, full curve, poor fit]"
5,NS(=O)(=O)c1ccc(NC=C2C(=O)OC3(CCCCC3)OC2=O)cc1,"2.51 µM [falling, single point]"
6,CCOC(=O)c1ccc(NC(=O)CSc2nnc(C)n2-c2ccccc2)cc1,"3.16 µM [falling, partial curve, poor fit]"
7,Cc1cccc(NC(=O)NCc2ccc3c(c2)cc(C)n3C)c1,"35.5 µM [rising, single point]"
8,COC(=O)c1cc(CSc2nnc(NC3CCCCC3)s2)oc1C,"3.98 µM [falling, single point]"
9,Cc1ccc(C(=O)N2CCN(c3cc4c(cc3[N+](=O)[O-])n(C)c(=O)n4C)CC2)cc1,"0.398 µM [rising, partial curve, poor fit]"
10,COc1cc2c3nnc(-c4ccc(F)cc4)c-3cn(Cc3ccccc3)c2cc1OC,"0.224 µM [falling, full curve]"
11,COC(=O)c1ccccc1NC(=O)c1cc2nc(C3CC3)cc(C(F)(F)F)n2n1,"6.31 µM [falling, single point]"
12,COc1cccc(COc2ccccc2C2Nc3ccc(Br)cc3C(=O)N2NC(=O)c2ccncc2)c1 (stereo not drawn),"5.01 µM [falling, single point]"
13,COc1cccc(C(=O)Nc2ccc(NC(C)=O)cn2)c1,"31.6 µM [falling, single point]"
14,NC(=O)Cc1c[nH]c2cccc(O)c12,"31.6 µM [falling, single point]"
15,COC(=O)CCc1c(C)c(C(=O)c2ccco2)c2ccccn12,"15.8 µM [rising, single point]"
16,Cc1ccc2nc(SCC(=O)NCc3cccs3)c(C#N)cc2c1,"5.01 µM [rising, full curve]"
17,COc1ccc2[nH]c(=O)c(CNc3cccc(C)c3)cc2c1,"1.58 µM [falling, partial curve, poor fit]"
18,CC1CN(c2nc3c(c(=O)n(Cc4ccc(Cl)c(Cl)c4)c(=O)n3C)n2C)CC(C)O1 (stereo not drawn),"1 µM [rising, partial curve]"
19,Fc1ccc(-c2nnc3sc(C4COc5ccccc5O4)nn23)cc1 (stereo not drawn),"5.01 µM [rising, partial curve, poor fit]"
20,CCOC(=O)c1c(C)[nH]sc1=S,"15.8 µM [rising, partial curve]"
21,CCOc1cccc(NC(=O)CSc2nc(C)c3c(c2C#N)CCCC3)c1,"3.16 µM [rising, single point]"
22,Cc1nnc2ccc(N3CCCC3)nn12,"10 µM [rising, partial curve]"
23,CCCNC(=O)c1cc(-c2ccco2)on1,"0.0501 µM [rising, full curve, poor fit]"

# Part of the list above, with tabs.
row	Structure (SMILES)	AC50
17	COc1ccc2[nH]c(=O)c(CNc3cccc(C)c3)cc2c1	1.58 µM [falling, partial curve, poor fit]
18	CC1CN(c2nc3c(c(=O)n(Cc4ccc(Cl)c(Cl)c4)c(=O)n3C)n2C)CC(C)O1 (stereo not drawn)	1 µM [rising, partial curve]
19	Fc1ccc(-c2nnc3sc(C4COc5ccccc5O4)nn23)cc1 (stereo not drawn)	5.01 µM [rising, partial curve, poor fit]

# Next part.

row,Structure (SMILES),AC50
1,O=C(NCCCN1CCOCC1)c1ccc(CS(=O)(=O)c2cccc(C(F)(F)F)c2)o1,"6.31 µM [falling, single point]"
2,O=C(Oc1cncc(Cl)c1)c1ccco1,"31.6 µM [falling, single point]"
3,Cc1ccccc1Nc1c(-c2ccc(N3CCOCC3)cc2)nc2ncccn12,"35.5 µM [rising, single point]"
4,COc1ccc(OC)c(S(=O)(=O)Nc2ccc(F)cc2)c1,"5.01 µM [falling, single point]"
5,Cc1nn(-c2ccccc2)c2[nH]c(=O)c(CNCc3ccc4c(c3)OCO4)cc12,"0.794 µM [falling, partial curve, poor fit]"
6,Cc1ccc2[nH]c(=O)c(C(c3nnnn3CC3CCCO3)N3CCc4ccccc4C3)cc2c1 (stereo not drawn),"3.16 µM [falling, single point]"
7,Cc1ccc(-c2nc3ccccc3o2)cc1NC(=S)NC(=O)c1cc2ccccc2o1,"31.6 µM [rising, single point]"
8,CCCCN(CCCC)C(=O)CN(C)S(=O)(=O)c1ccc2c(c1)n(C)c(=O)c(=O)n2C,"5.62 µM [rising, single point]"
9,O=C(NCc1cccnc1)C1CCN(S(=O)(=O)N2CCOCC2)CC1,"0.0316 µM [rising, full curve, poor fit]"
10,CC(C)c1ccc(C2N=C(N)Nc3nc4ccccc4n32)cc1 (stereo not drawn),"35.5 µM [rising, single point]"
11,COc1cc(C(=O)NCC2CCCO2)cc(OC)c1OC (stereo not drawn),"2.51 µM [falling, single point]"
12,O=C(NCc1cccc(Cl)c1)c1cnccn1,"5.62 µM [falling, single point]"
13,CCC(=O)Nc1ccc(-c2nnc3c4ccccc4c(C)nn23)cc1,"35.5 µM [rising, single point]"
14,CCN(CC)S(=O)(=O)C1CCS(=O)(=O)C1 (stereo not drawn),"20 µM [falling, partial curve, poor fit]"
15,CN(C)c1cc(O)c(C(=S)Nc2ccccc2)c(N(C)C)c1,"0.501 µM [rising, single point]"
16,Cc1cc(C)n(CCOC(=O)c2sc3ccccc3c2Cl)n1,"5.01 µM [rising, single point]"
17,COC(=O)c1nnn(-c2ccccc2)c1N,"0.158 µM [rising, full curve]"
18,c1ccc2[nH]c(CSc3ncnc4c3oc3ccccc34)nc2c1,"15.8 µM [rising, partial curve, poor fit]"
19,Cn1nnnc1SCCNCc1ccc(Cl)cc1,"3.98 µM [falling, partial curve, poor fit]"
20,Cc1cc(C)c(C)c(Cn2c(CO)nc3ccccc32)c1C,"1 µM [falling, full curve]"
21,O=C(Cc1ccc(-n2cccc2)cc1)NC1CCCCCC1,"0.355 µM [falling, partial curve]"
22,CCOC(=O)CSc1nc(N)c(C#N)c(-c2ccc(OCC)cc2)c1C#N,"31.6 µM [rising, single point]"
23,COc1cc(Br)c(/C=C(\C#N)c2nc3ccccc3[nH]2)cc1OC,"0.251 µM [falling, full curve, poor fit]"

row,Structure (SMILES),AC50
1,Cc1ccc(C)c(OCc2nc(-c3cccnc3)no2)c1,"3.16 µM [rising, partial curve]"
2,CC(C)c1ccc(NC(=O)c2csnn2)cc1,"10 µM [falling, partial curve, poor fit]"
3,COc1ccc(-n2nc3cc(C)c(NC(=O)C(C)C)cc3n2)cc1,"5.01 µM [rising, single point]"
4,O=C(O)c1cccc(-n2nnnc2SCc2ccccn2)c1,"0.126 µM [falling, full curve, poor fit]"
5,CC(Oc1ccccc1)C(=O)Nc1ccc(S(=O)(=O)N2CCOCC2)cc1 (stereo not drawn),"35.5 µM [falling, single point]"
6,COc1ccc(-n2c(=O)cc(N3CCOCC3)[nH]c2=O)cc1,"0.01 µM [rising, full curve, poor fit]"
7,O=c1nc2n(c3c1oc1ccccc13)Cc1ccccc1-2,"15.8 µM [rising, single point]"
8,CCCCC(=Nc1ccc(N)cc1)C1=C(O)C(C(=O)OC)C(C)(C)CC1=O (stereo not drawn),"12.6 µM [falling, partial curve]"
9,Cc1nc(NC(=O)c2ccccc2)sc1-c1csc(Nc2cccc(Cl)c2)n1,"1.26 µM [falling, full curve, poor fit]"
10,O=c1c2ccccc2nnn1Cc1ccccn1,"1.58 µM [falling, partial curve]"
11,CCOc1ccc(Nc2cc(C)nc(-n3nc(C)cc3C)n2)cc1,"3.16 µM [falling, single point]"
12,Cc1nn(Cc2ccc(C(=O)Nc3nccs3)cc2)c(C)c1Cl,"3.16 µM [rising, partial curve]"
13,Cc1ccc(S(=O)(=O)NCC(=O)NC2CCCC2)cc1,"0.398 µM [rising, full curve, poor fit]"
14,COc1ccc(C(=O)/C=C/Nc2ccc(NC(C)=O)cc2)cc1OC,"3.98 µM [falling, full curve, poor fit]"
15,Cc1nn(-c2ccccc2)c(C)c1C(=O)OCC(=O)NC(=O)NC1CCCC1,"3.98 µM [rising, single point]"
16,O=C(Nc1ccc(Cl)cc1)Nc1ccc(N2CCOCC2)cc1,"0.0178 µM [falling, full curve, poor fit]"
17,Cc1cc2c(cc1C)C(=O)NC(C)(C)C2,"35.5 µM [falling, single point]"
18,CCOC(=O)c1cnc2ccc(OCC)cc2c1N1CCN(C)CC1,"0.0316 µM [rising, full curve, poor fit]"
19,CCOc1ccc2nc(SCC(=O)N(C)C3CCS(=O)(=O)C3)[nH]c2c1 (stereo not drawn),"0.2 µM [rising, full curve, poor fit]"
20,CCCCn1nnc(NC(=O)c2sc3cc(Cl)ccc3c2Cl)n1,"12.6 µM [rising, partial curve]"
21,CCCCn1c(NCc2ccc(N(C)C)cc2)nc2ccccc21,"0.158 µM [falling, full curve, poor fit]"
22,CN1CCN(C(=O)c2ccc3c(c2)NC(=O)C(C)(C)O3)CC1,"6.31 µM [falling, single point]"
